Assay results: paper PMC7814016
No constants are given. Whether binding was seen depends on the method and setting. Binding seen in cells or lysates may run through a third protein. Some entries that bind do so weakly or less than the wild type. For some assays here: Sequences can lack the tags named with a protein. Values belong to the binder of their own block, whether it stands above or below them.

Legend:
[1] = molecular target: T1, FLAG-tagged CD146 (UniProt P43121); assay: co-IP; HK-2 cells co-transfected with V5-Wnt5a and FLAG-CD146 plasmids (1 μg or 2 μg each) for 48 h; lysed in RIPA buffer; IP with anti-V5 or anti-FLAG antibody overnight at 4 °C; blots with anti-FLAG and anti-V5
T1 sequence: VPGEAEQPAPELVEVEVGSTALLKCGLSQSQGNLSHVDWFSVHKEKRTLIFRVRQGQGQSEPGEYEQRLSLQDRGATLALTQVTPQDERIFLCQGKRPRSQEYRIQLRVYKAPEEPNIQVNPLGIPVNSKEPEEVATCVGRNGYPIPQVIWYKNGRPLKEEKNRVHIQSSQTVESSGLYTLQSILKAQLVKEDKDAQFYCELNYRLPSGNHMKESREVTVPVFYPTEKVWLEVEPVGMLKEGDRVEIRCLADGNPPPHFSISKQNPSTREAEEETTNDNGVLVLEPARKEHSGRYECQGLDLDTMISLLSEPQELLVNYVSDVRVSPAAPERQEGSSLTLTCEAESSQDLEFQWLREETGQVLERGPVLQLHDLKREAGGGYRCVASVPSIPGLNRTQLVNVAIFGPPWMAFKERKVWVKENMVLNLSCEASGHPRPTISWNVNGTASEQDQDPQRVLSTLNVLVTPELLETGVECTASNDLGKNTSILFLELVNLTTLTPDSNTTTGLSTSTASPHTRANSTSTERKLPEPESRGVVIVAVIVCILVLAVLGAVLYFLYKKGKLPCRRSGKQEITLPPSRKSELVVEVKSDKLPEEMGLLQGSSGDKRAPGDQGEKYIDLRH

[2] = molecular target: T2, CD146 (endogenous) (human (endogenous in HK-2)) (UniProt P43121); assay: co-IP; endogenous proteins of HK-2 cells; normal glucose, or high glucose (HG) for 24 h with or without pretreatment with Box5 (100 μM/L); lysed in RIPA buffer; IP with anti-wnt5a or anti-CD146, blots with anti-CD146 or anti-wnt5a
T2 sequence: T1 sequence

binding [1]: binds
B1: V5-tagged Wnt5a (ligand, UniProt P41221 62-380)
chain: IIGAQPLCSQLAGLSQGQKKLCHLYQDHMQYIGEGAKTGIKECQYQFRHRRWNCSTVDNTSVFGRVMQIGSRETAFTYAVSAAGVVNAMSRACREGELSTCGCSRAARPKDLPRDWLWGGCGDNIDYGYRFAKEFVDARERERIHAKGSYESARILMNLHNNEAGRRTVYNLADVACKCHGVSGSCSLKTCWLQLADFRKVGDALKEKYDSAAAMRLNSRGKLVQVNSRFNSPTTQDLVYIDPSPDYCVRNESTGSLGTQGRLCNKTSEGMDGCELMCCGRGYDQFKTVQTERCHCKFHWCCYVKCKKCTEIVDQFVCK

binding [2]: binds
B2: Wnt5a (endogenous) (ligand, UniProt P41221 62-380)
chain: B1 chain
